The text below walks through data of patent US20170189504A1, “NOVEL PEPTIDES AND COMBINATION OF PEPTIDES FOR USE IN IMMUNOTHERAPY AGAINST VARIOUS CANCERS” (immatics biotechnologies GmbH, priority 2015, published 2017).

For some of these results: Expression values are those of the mRNA of the gene that encodes the peptide; a gene is named only where it was looked up.

One data set has as its system HLA-A*24. As to the kind of experiment: Identification and relative LC-MS quantitation of HLA-A*24-presented tumor-associated peptides on tissue samples (presentation profiles, Tables 14A, 14B, 16, FIG. 1). Also on record: species or system human; key to Presentation score GC / Presentation score NSCLC / Presentation score PCA / Presentation score GB / Presentation score HCC / Presentation score RCC: specifically presented on tumors (++++); very highly over-presented on tumors compared to a panel of normal tissues (+++); highly over-presented on tumors compared to a panel of normal tissues (++); over-presented on tumors compared to a panel of normal tissues (+). To be noted: HLA-A*24 peptides; glioblastoma (N = 18) vs panel of normal tissues (N = 70).

Data set [1] concerns source genes (mRNA). As to the kind of experiment: Gene and exon expression of source genes, TCGA tumor samples compared with normal tissue samples (Lonsdale, 2013) (Table 17). To be noted: same cutoff. Also on record: species or system human.
The subject of data set [2] is source genes (mRNA). The experiment in a line: Expression profiling of source genes by in-house RNASeq of tumor and normal tissues (Table 18, FIG. 2). Also noted: species or system human; key: very highly over-expressed in tumors compared to a panel of normal tissues (+++); highly over-expressed in tumors compared to a panel of normal tissues (++); over-expressed in tumors compared to a panel of normal tissues (+). To be noted: source gene of peptide; glioblastoma (N = 24) vs panel of normal tissues.

On to “191: peptide found in PTPRZ1 (gene looked up) (VFKASKITF; listed as Homo sapiens) [compound 191]”, for which the “Presentation score GB” value with HLA-A*24 is listed as “++++”. Further, the “Over-expression category of source gene (target coverage), ESCA” value in the data set on source genes (mRNA) [1] (ESCA = Esophageal cancer (N = 185)) is given as “C (>=5% of tumors above the cutoff, but <20%)”. Besides, in the data set with source genes (mRNA) [1] (GBM = Glioblastoma multiforme (N = 169)), the “Over-expression category of source gene (target coverage), GBM” value is “A (>=50% of tumors above the cutoff)”. The “Over-expression category of source gene (target coverage), LGG” value in the data set with source genes (mRNA) [1] (LGG = Lower grade glioma (N = 534)) is recorded as “A (>=50% of tumors above the cutoff)”. Further, the “Over-expression category of source gene (target coverage), LUSC” value with source genes (mRNA) [1] (LUSC = Lung squamous cell carcinoma (N = 503)) was “C (>=5% of tumors above the cutoff, but <20%)”. The “Over-expression category of source gene (target coverage), SKCM” value with source genes (mRNA) [1] (SKCM = Skin cutaneous melanoma (N = 473)) was “C (>=5% of tumors above the cutoff, but <20%)”. Besides, the “Expression score GB” value with source genes (mRNA) [2] is listed as “+++”.
